Holding throughout (assay): DAPPL (digital affinity profiling via proximity ligation, sequencing)
What all share (conditions): 10 mM Tris-HCl pH 7.5, 50 mM NaCl, 1 mM DTT, 4% glycerol, room temperature, 30 min; GST-TFs on glutathione beads, 16-mer random dsDNA library, 0.1% …; high values mean tight binding; double strand, one strand shown; scale: fold enrichment (6-mer frequency, TF over GST control)

For one assay, the target named is T1, ELK1 (UniProt P19419).
T1 sequence: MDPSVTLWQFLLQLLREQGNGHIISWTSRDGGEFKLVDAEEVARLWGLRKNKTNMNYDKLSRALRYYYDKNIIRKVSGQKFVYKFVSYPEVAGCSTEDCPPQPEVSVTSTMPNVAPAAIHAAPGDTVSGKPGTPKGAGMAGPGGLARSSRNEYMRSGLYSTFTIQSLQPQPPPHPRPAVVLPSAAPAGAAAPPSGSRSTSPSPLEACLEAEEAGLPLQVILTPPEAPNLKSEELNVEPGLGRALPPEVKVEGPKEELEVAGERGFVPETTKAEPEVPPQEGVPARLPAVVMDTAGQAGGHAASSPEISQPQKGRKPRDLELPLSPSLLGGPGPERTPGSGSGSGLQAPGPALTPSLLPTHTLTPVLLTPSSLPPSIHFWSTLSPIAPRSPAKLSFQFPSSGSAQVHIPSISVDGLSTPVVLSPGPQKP

The target of a further assay is T2, ELK3 (UniProt P41970).
T2 sequence: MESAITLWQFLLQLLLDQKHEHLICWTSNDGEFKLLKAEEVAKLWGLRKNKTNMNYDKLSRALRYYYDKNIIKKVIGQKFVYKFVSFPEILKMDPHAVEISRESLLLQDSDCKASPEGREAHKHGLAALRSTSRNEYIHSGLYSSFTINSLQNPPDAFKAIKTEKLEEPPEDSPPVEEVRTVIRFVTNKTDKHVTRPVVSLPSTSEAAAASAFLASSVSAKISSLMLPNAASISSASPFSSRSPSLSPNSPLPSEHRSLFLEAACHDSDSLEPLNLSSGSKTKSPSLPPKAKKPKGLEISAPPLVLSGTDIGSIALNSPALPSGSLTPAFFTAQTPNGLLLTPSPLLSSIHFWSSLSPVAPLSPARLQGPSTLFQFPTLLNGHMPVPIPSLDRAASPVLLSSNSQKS

For another assay, the target named is T3, SPIC (UniProt Q8N5J4).
T3 sequence: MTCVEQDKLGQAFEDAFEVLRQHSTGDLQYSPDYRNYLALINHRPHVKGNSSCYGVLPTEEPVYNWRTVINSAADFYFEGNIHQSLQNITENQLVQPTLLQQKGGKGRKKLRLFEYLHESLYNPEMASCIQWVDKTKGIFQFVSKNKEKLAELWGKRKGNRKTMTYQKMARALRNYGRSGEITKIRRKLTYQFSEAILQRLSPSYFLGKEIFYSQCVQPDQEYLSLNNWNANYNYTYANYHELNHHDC

The target of another assay is T4, ETS2 (UniProt P15036).
T4 sequence: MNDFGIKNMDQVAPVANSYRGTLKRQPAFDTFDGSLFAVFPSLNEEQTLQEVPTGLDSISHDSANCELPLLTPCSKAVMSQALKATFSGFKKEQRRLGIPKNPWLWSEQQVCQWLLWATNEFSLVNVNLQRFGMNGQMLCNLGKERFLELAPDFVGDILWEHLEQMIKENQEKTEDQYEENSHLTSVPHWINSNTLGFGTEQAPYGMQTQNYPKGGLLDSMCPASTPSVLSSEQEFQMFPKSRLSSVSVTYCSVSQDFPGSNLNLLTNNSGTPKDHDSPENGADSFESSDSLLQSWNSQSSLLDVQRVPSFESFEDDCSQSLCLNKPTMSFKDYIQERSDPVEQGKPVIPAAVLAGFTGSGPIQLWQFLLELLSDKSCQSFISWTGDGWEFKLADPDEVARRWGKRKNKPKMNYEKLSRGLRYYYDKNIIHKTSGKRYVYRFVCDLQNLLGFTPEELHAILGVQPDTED

Another assay concerns the target T5, ETV3 (UniProt P41162-2).
T5 sequence: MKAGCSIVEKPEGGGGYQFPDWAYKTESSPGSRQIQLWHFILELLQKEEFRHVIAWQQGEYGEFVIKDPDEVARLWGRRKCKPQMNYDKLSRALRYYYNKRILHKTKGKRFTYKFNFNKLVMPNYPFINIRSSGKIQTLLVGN

Drawing on publication PMC7862700, this text covers binding signal for 30 sequences.

The list shows a part of the results, in another mix than the full data. At the low end of the ranking the order means little.

As for CCGGGG, the binding signal with ELK1 was found to be 0.81; with ELK3, 0.728; with SPIC, 0.849; with ETS2 it was 0.764; in the assay with ETV3 it was 0.766.

As to CGGAGG, the binding signal with ELK1 is 0.259; with ELK3 it was 0.294; with SPIC, 0.233; in the assay with ETS2, 0.28; with ETV3 it was 0.285.

With TCGCAG, the binding signal with ELK1 amounted to 0.907; with ELK3, 0.915; in the assay with SPIC, 0.864; with ETS2 it was 0.905; with ETV3, 0.913.

As for GTGAAG, the binding signal with ELK1 came out at 0.524; with ELK3, 0.522; in the assay with SPIC it was 0.541; in the assay with ETS2 it was 0.566; with ETV3 it was 0.554.

In the case of GCGTAG, the binding signal with ELK1 is 0.738; with ELK3, 0.716; with SPIC, 0.724; with ETS2, 0.741; with ETV3, 0.756.

Consider TCGTAA, for which the binding signal with ELK1 is 0.864; in the assay with ELK3, 0.928; with SPIC it was 0.962; with ETS2, 0.938; in the assay with ETV3, 0.972.

As to GCGGGA, the binding signal turned out to be 0.398 with ELK1; 0.377 with ELK3; 0.33 with SPIC; 0.378 with ETS2; 0.35 in the assay with ETV3.

Take GGCGCT: the binding signal in the assay with ELK1 is 0.708; with ELK3 it was 0.742; with SPIC it was 0.892; with ETS2 it was 0.757; with ETV3 it was 0.772.

Turning to GAGGCC, the binding signal was 0.425 with ELK1; 0.425 with ELK3; 0.419 in the assay with SPIC; 0.443 with ETS2; 0.455 in the assay with ETV3.

For GAGAGG, the binding signal came out at 0.535 with ELK1; 0.532 with ELK3; 0.591 with SPIC; 0.487 with ETS2; 0.471 in the assay with ETV3.

In the case of CGTGAC, the binding signal in the assay with ELK1 came out at 0.558; with ELK3, 0.583; in the assay with SPIC, 0.484; with ETS2, 0.589; in the assay with ETV3, 0.533.

As to TGCAGT, the binding signal with ELK1 is 0.869; with ELK3, 0.786; with SPIC, 0.777; with ETS2 it was 0.851; with ETV3 it was 0.815.

Consider GGGAGT, for which the binding signal turned out to be 0.249 with ELK1; 0.242 with ELK3; 0.208 with SPIC; 0.239 with ETS2; 0.24 with ETV3.

Consider GATCGT, for which the binding signal with ELK1 stood at 0.402; in the assay with ELK3, 0.381; with SPIC, 0.447; with ETS2, 0.411; with ETV3, 0.417.

Take AGCACC: the binding signal with ELK1 was found to be 0.924; with ELK3, 0.984; with SPIC it was 0.922; in the assay with ETS2, 0.872; with ETV3, 0.908.

Consider GCAGCG, for which the binding signal in the assay with ELK1 was found to be 0.812; with ELK3, 0.844; in the assay with SPIC, 0.859; in the assay with ETS2, 0.853; with ETV3, 0.789.

Take GCGCGG: the binding signal stood at 0.814 with ELK1; 0.818 with ELK3; 0.705 with SPIC; 0.822 with ETS2; 0.798 with ETV3.

Regarding CTGTGA, the binding signal with ELK1 came out at 0.508; with ELK3, 0.459; with SPIC it was 0.494; in the assay with ETS2, 0.525; with ETV3 it was 0.434.

With GTGATT, the binding signal worked out at 0.75 with ELK1; 0.727 in the assay with ELK3; 0.767 with SPIC; 0.727 with ETS2; 0.69 with ETV3.

For the sequence TCAGCG, the binding signal with ELK1 was 0.863; with ELK3, 0.764; in the assay with SPIC it was 0.854; with ETS2 it was 0.819; with ETV3, 0.826.

Regarding GGGTAC, the binding signal in the assay with ELK1 was determined as 0.889; with ELK3, 0.973; with SPIC, 0.824; with ETS2, 0.881; in the assay with ETV3, 0.969.

As to CACGAG, the binding signal was 0.826 in the assay with ELK1; 0.957 with ELK3; 0.841 in the assay with SPIC; 0.834 with ETS2; 0.813 with ETV3.

Consider CACGTC, for which the binding signal with ELK1 came out at 0.889; with ELK3, 0.828; in the assay with SPIC, 0.874; in the assay with ETS2, 0.873; with ETV3 it was 0.844.

In the case of GCGGTG, the binding signal with ELK1 worked out at 0.498; in the assay with ELK3, 0.47; in the assay with SPIC, 0.584; with ETS2, 0.535; in the assay with ETV3, 0.53.

Regarding CTGGGA, the binding signal with ELK1 is 0.779; with ELK3 it was 0.858; with SPIC, 0.814; in the assay with ETS2, 0.747; with ETV3 it was 0.806.

Regarding TGGAGG, the binding signal amounted to 0.463 with ELK1; 0.477 in the assay with ELK3; 0.484 in the assay with SPIC; 0.476 with ETS2; 0.47 with ETV3.

Turning to CAAGGG, the binding signal came to 0.93 with ELK1; 0.963 in the assay with ELK3; 0.797 with SPIC; 0.908 in the assay with ETS2; 0.845 with ETV3.

With TTGGAG, the binding signal in the assay with ELK1 is 0.533; with ELK3, 0.57; with SPIC, 0.533; with ETS2 it was 0.502; with ETV3 it was 0.519.

Regarding CATCGG, the binding signal with ELK1 is 0.663; with ELK3, 0.662; in the assay with SPIC, 0.675; with ETS2 it was 0.653; in the assay with ETV3, 0.657.

On to GCATCA, for which the binding signal stood at 0.801 with ELK1; 0.801 with ELK3; 0.802 with SPIC; 0.734 in the assay with ETS2; 0.723 with ETV3.
